Measurements published in article PMC2289219 (The Journal of Cell Biology, 1991).

Tested on: Bovine brain ECs
Type: cell-based

CN[C@@H]1C[C@H]2O[C@@](C)([C@@H]1OC)n1c3ccccc3c3c4c(c5c6ccccc6n2c5c31)C(=O)NC4 [staurosporine]
Effect of protein kinase inhibitors on resistance: quite effective in decreasing resistance
